The other results are listed elsewhere or left out. Values are raw readings; no control value is given beside them.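 Primary screen: polymyxin B was added at a level permeabilizing Salmonella outer membranes while sparing inner membranes. DMSO wells, both with and without polymyxin B, established maximum growth. Plate-to-plate variation meant each plate was ranked on its own, and the lowest-OD600 compounds were selected as hits.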
Tested on: Salmonella enterica serovar Typhimurium SL1344
Assay: bacterial growth OD600 after 18 h with compound and polymyxin B; higher = more bacterial growth (less inhibition)
Settings: 50 µM, Mueller-Hinton broth

| Structure (SMILES) | bacterial growth OD600 (polymyxin B 1 µg/mL) | bacterial growth OD600 (polymyxin B 0.75 µg/mL) |
| --- | --- | --- |
| O=C(CC(c1ccccc1)c1cccc(Cl)c1)NCCN1CCNC1=O (configuration not stated) | 1.2 | – |
| Cc1ccc(C(=O)N2CCC(C3(Cc4cccc(F)c4)NC(=O)N(CC(C)C)C3=O)CC2)c(C)c1 (configuration not stated) | – | 0.817 |
| Cc1ccccc1CC(C1CCN(C(=O)CSc2ccccn2)CC1)N(C)C(=O)Cn1cccn1 (configuration not stated) | – | 0.831 |
| COc1ccc(CN(Cc2cccnc2)CC2CCCN(C3CCCCC3)C2)cc1OC (configuration not stated) | – | 0.935 |
| CS(=O)(=O)N1CCc2onc(-c3ccc(F)c(F)c3)c2C1 | – | 0.857 |
| O=C1N(Cc2cccc(Cl)c2)C[C@@H]2C[C@@H](c3cccn3-c3ccccn3)N3CCC[C@@]123 | 0.526 | – |
| CCN1CCCC1CNC(=O)CCC1CCN(Cc2[nH]c3ccc(OC)cc3c2C)CC1 (configuration not stated) | – | 0.805 |
| COc1cccc(-c2cc3c(c(OC)c2)OCCN(Cc2ccccc2)C3)n1 | – | 0.816 |
| C[C@@H]1CN(c2ccc(C(=O)N3CCC(CCn4cccn4)CC3)cn2)C[C@H](C)O1 | – | 0.776 |
| COc1ccc(NC2CCCN(C(=O)C3(C)CCCCC3)C2)cc1 (configuration not stated) | 0.813 | – |
| O=C(NCc1cccc(Cl)c1)c1coc(COc2ccc3c(c2)OCO3)n1 | 0.809 | – |
| Cc1ccc(CN2Cc3cc(Cl)ccc3OC(C)C2)o1 (configuration not stated) | – | 0.721 |
| COc1ccccc1CCNC(=O)Cc1ccc(N2CCC(NC(C)Cc3cccnc3)CC2)cc1 (configuration not stated) | – | 0.748 |
| CCC(=O)N[C@@H]1c2ccccc2C2(CCN(Cc3cc(C)cc(C)c3)CC2)[C@H]1OCCOC | – | 0.861 |
| O=C(NCc1cccnc1Oc1ccccc1)c1ccc2c(c1)OCO2 | 0.939 | – |
| O=C(c1coc(COc2ccc(F)cc2Cl)n1)N1CCCC(O)C1 (configuration not stated) | 0.955 | – |

| Structure (SMILES) | bacterial growth OD600 (polymyxin B 1 µg/mL) | bacterial growth OD600 (polymyxin B 0.75 µg/mL) |
| --- | --- | --- |
| CCCc1cc(CNC(=O)c2ccc(N3CCN(C)CC3)nc2)on1 | 0.917 | – |
| O=C(Cn1cccn1)N1CCC(C2CCN(Cc3cccc(F)c3F)CC2)C1 (configuration not stated) | – | 0.814 |
| Cc1ncoc1C(=O)N1CCC2(CCCN(Cc3ccccc3F)C2=O)C1 (configuration not stated) | 0.973 | – |
| CC1(C)C[C@@H]2C[C@@](C)(CN2C(=O)c2coc(COc3ccc4c(c3)OCO4)n2)C1 | 0.055 | – |
| CC(=O)c1ccc(OCc2cc(C(=O)N3CCCC(O)C3)no2)cc1 (configuration not stated) | 1.01 | – |
| COc1ccc(CNC2CCCc3nc(N4CCC(CO)CC4)ncc32)c(F)c1 (configuration not stated) | – | 0.792 |
| O=C(c1cc(Cn2ccc3ccccc32)[nH]n1)N1CCCO1 | 0.864 | – |
| COCC1CCCN(C(=O)c2cn(CCC3CCCCC3)nn2)C1 (configuration not stated) | 0.98 | – |
| O=C(NCCC1COc2ccccc2O1)c1ccc(OC2CCN(C(=O)C3CC3)CC2)cc1 (configuration not stated) | 0.789 | – |
| O=C(CCC1(Cc2ccccc2)CCC(=O)N1)NCc1ccco1 (configuration not stated) | – | 0.878 |
| Cc1c(C(C)NCc2cccc(O)c2)cnn1-c1cccc2ccccc12 (configuration not stated) | – | 0.572 |
| O=C(CCCc1ccccc1)Nc1ccnn1C1CCN(C2CCOCC2)CC1 | – | 0.904 |
| CCOc1ccc(CN2CCN(Cc3cccc(F)c3F)CC2CCO)cc1 (configuration not stated) | 0.958 | – |
| O=C1N(Cc2cccc(F)c2F)CCCC1(O)CNCc1ccccc1 (configuration not stated) | 0.888 | – |
| CN(C(=O)C1=CCCC1)C1CCCN(CCc2ccccc2)C1 (configuration not stated) | 1.36 | – |
| O=C(NCCN1CCOC1=O)c1ccc2oc(CCc3ccccc3)nc2c1 | 0.766 | – |

Some of the entries so far, field by field:
Cc1c(C(C)NCc2cccc(O)c2)cnn1-c1cccc2ccccc12 (configuration not stated)
  bacterial growth OD600 (polymyxin B 0.75 µg/mL): 0.572
CN(C(=O)C1=CCCC1)C1CCCN(CCc2ccccc2)C1 (configuration not stated)
  bacterial growth OD600 (polymyxin B 1 µg/mL): 1.36

— the supplement of paper PMC12889115
